Laboratory results taken from the supplement of paper PMC10338343.
± gives the standard deviation. The list shows a part of the results. Many of these values have a large error.

System: EfPiwi piRISC loaded with L1MC piRNA (26 nt)
Assay: pre-steady-state target cleavage rate (min^-1); guide: L1MC piRNA 5'p-UAACUAAAUACUAUGCAAGCUGUAGG; MIWI and MILI are mouse PIWI proteins and EfPiwi is from a freshwater sponge; tags in brackets are library labels; higher = faster piRNA-guided slicing of the target
Outline: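 Using HEPES–potassium acetate buffer at 33 °C, 1 nM active affinity-purified piRISC with a single synthetic guide was mixed with 0.1 nM transcribed, DNA-blocked target RNA library for 0–8 or 0–960 min, with or without 500 nM GTSF1 partner protein. Uncleaved targets were sequenced and normalised to depth and to weakly complementary targets, and three trials were pooled with k3 capped at 0.0001 min^-1. A burst-and-steady-state fit gave the pre-steady-state cleavage rate.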

[1] = auxiliary factor: 500 nM Ephydatia muelleri Gtsf1
[2] = auxiliary factor: none (no Gtsf1)

Row | Sequence | pre-steady-state target cleavage rate [1] | pre-steady-state target cleavage rate [2]
1 | UCCUGGAUGUGUUGCAUAGUAUUUAGUUA | 0.0026 ± 0.0033 | 0.00289 ± 0.0049
2 | UCCUGGAUCAGCAUGCUUAGUAUUUAGUUA | 0.0112 ± 0.0042 | 0.00113 ± 0.0078
3 | UCCUGGAUCAGGUUGCAUACUAUUUAGUUA | 0.00262 ± 0.0019 | 0.000601 ± 0.017
4 | UCCUGCUACAGGUUGCAUACUAUUUAGUUA | 0.00621 ± 0.0019 | 0.000766 ± 0.01
5 | UCCUGGAUGUCGAAGCAUAGUAUAUAGUAA | 0.000351 ± 0.0094 | 0.000195 ± 0.04
6 | UCCUGGUACAGCUUGCAUAGUAAAAAGUUA | 0.00114 ± 0.0037 | 0.000801 ± 0.0079
7 | UCCUGCUACAGCUUGCAAUGUAUUUAGUUA | 0.00312 ± 0.0024 | 0.000553 ± 0.0091
8 | UCCUGGUACAGCCUGCAUAGUAUUUAGUUA | 0.00984 ± 0.0036 | 0.00106 ± 0.011
9 | UCCUGGAUGAGCUUGCAUAGUAUUUUGAAA | 0.00297 ± 0.003 | 0.00044 ± 0.016
10 | UCCUGGAUGAGCUAGCAUAGUAUUUAGAUA | 0.00406 ± 0.002 | 0.00029 ± 0.029
11 | UCCUGGAACAGCUUGCAUAGUAAAUAGUUA | 0.00589 ± 0.0023 | 0.00084 ± 0.011
12 | UCCUGGAUGUCGAAGCUUAGUAUUUAGUAA | 0.000149 ± 0.032 | < 0.0001
13 | UCCUGGAUCAGCUUGCAUAGUAUAUAGUUA | 0.0716 ± 0.02 | 0.0117 ± 0.0058
14 | UCCUGGAACAGCUUGCAUAGUAUUUCAGUUA | 0.00308 ± 0.0026 | 0.000466 ± 0.017
15 | UCCUGGAUCAGCUUGUCAUAGUAUUUAGUUA | 0.0196 ± 0.0046 | 0.000833 ± 0.013
16 | UCCUGGAUGAGCUUGCAAAGUAUAUAGUUA | 0.000499 ± 0.011 | < 0.0001
17 | UCCUGCUACAGCUUGCAUAGUAUUAUCAAA | 0.00232 ± 0.0026 | 0.000335 ± 0.019
18 | UCCUGGAUGAGCAUGCAUAGUAUUUACUUA | 0.00139 ± 0.0035 | 0.000328 ± 0.028
19 | UCCUGGAACAGCUUGCAUAGUAUUUAGUAUA | 0.00935 ± 0.005 | 0.000485 ± 0.021
20 | UCCUGGAUGUGCCUUGCAUAGUAUUUAGUUA | 0.0886 ± 0.031 | 0.00076 ± 0.0091

Two entries drawn at random from the list so far:
Row | Sequence | pre-steady-state target cleavage rate [1] | pre-steady-state target cleavage rate [2]
17 | UCCUGCUACAGCUUGCAUAGUAUUAUCAAA | 0.00232 ± 0.0026 | 0.000335 ± 0.019
6 | UCCUGGUACAGCUUGCAUAGUAAAAAGUUA | 0.00114 ± 0.0037 | 0.000801 ± 0.0079
